Test results published in the supplement of paper PMC4604168 (melanoma cell lines).
The list shows a part of the results. Single values are uncertain, as repeats are few or missing.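 Cells were imaged in 1,536-well plates, and nuclei stained with an antibody against cleaved PARP were counted against all DNA-stained nuclei to give the apoptosis fraction. Screening doses were chosen to leave most cells alive, and resting and induced cleaved-PARP levels differ strongly between cell lines.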

What was measured:
Assay in all cases: cleaved PARP positive nuclei fraction relative to DMSO control; melanoma cells; higher = more apoptosis
Details in all cases: library dose: low library concentration; 72 h
[1] = system: 501Mel
[2] = system: A101D
[3] = system: A2058
[4] = system: C32
[5] = system: CBRC008 (line from a melanoma biopsy)
[6] = system: CBRC014 (line from a melanoma biopsy)
[7] = system: CBRC016 (line from a melanoma biopsy)
[8] = system: CBRC017 (line from a melanoma biopsy)
[9] = system: COLO792
[10] = system: COLO800
[11] = system: COLO829
[12] = system: G361
[13] = system: IPC-298
[14] = system: IST-MEL1
[15] = system: LB2518-MEL
[16] = system: LOXIMVI

Row | SMILES | cleaved PARP positive nuclei fraction [1] | cleaved PARP positive nuclei fraction [2] | cleaved PARP positive nuclei fraction [3] | cleaved PARP positive nuclei fraction [4] | cleaved PARP positive nuclei fraction [5] | cleaved PARP positive nuclei fraction [6] | cleaved PARP positive nuclei fraction [7] | cleaved PARP positive nuclei fraction [8] | cleaved PARP positive nuclei fraction [9] | cleaved PARP positive nuclei fraction [10] | cleaved PARP positive nuclei fraction [11] | cleaved PARP positive nuclei fraction [12] | cleaved PARP positive nuclei fraction [13] | cleaved PARP positive nuclei fraction [14] | cleaved PARP positive nuclei fraction [15] | cleaved PARP positive nuclei fraction [16]
1 | CCCCCCCCc1ccc(CCC(N)(CO)CO)cc1 [fingolimod] + O=C(Nc1ccccc1)c1cc([N+](=O)[O-])ccc1Cl [GW9662] (first compound 2 µM, partner dose 2 µM) | 165% | 40.8% | 143% | 84.5% | 47% | 116% | 52.6% | 122% | 119% | 24.2% | 73.8% | 52% | 47% | 176% | 31% | 72.7%
2 | CC1(C)CCC(c2ccc(Cl)cc2)=C(CN2CCN(c3ccc(C(=O)NS(=O)(=O)c4ccc(N[C@H](CCN5CCOCC5)CSc5ccccc5)c(S(=O)(=O)C(F)(F)F)c4)cc3)CC2)C1 + Oc1cc(-c2nc(-c3ccccc3)[nH]c2-c2ccncc2)ccc1Cl [L779450] (first compound 0.4 µM, partner dose 0.2 µM) | 110% | 106% | 65.8% | 148% | 519% | 544% | 365% | 241% | 619% | 94.5% | 115% | 248% | 165% | 102% | 199% | 542%
3 | COc1ccc(C2=N[C@@H](c3ccc(Cl)cc3)[C@@H](c3ccc(Cl)cc3)N2C(=O)N2CCNC(=O)C2)c(OC(C)C)c1 [Nutlin-3] + COC(=O)c1sccc1S(=O)(=O)Nc1ccc(Nc2ccccc2)cc1OC [GSK0660] (first compound 0.1 µM, partner dose 1 µM) | 73% | 21.9% | 24.3% | 121% | 125% | 111% | 100% | 87.1% | 137% | 168% | 162% | 140% | 187% | 107% | 42.1% | 71.7%
4 | CN(c1ncccc1CNc1nc(Nc2ccc3c(c2)CC(=O)N3)ncc1C(F)(F)F)S(C)(=O)=O + N#Cc1c(O)c2c(-c3ccc(-c4ccccc4O)cc3)csc2[nH]c1=O [A769662] (first compound 0.08 µM, partner dose 2 µM) | 69.8% | 62.6% | 109% | 186% | 89.3% | 95.2% | 51.2% | 112% | 21% | 64.8% | 186% | 93.4% | 87.8% | 133% | 68% | 162%
5 | CS(=O)(=O)c1ccc(C(=O)Nc2ccc(Cl)c(-c3ccccn3)c2)c(Cl)c1 [vismodegib] + COc1cc2ncnc(Nc3ccc(Oc4ccccc4)cc3)c2cc1OC [SrcI1] (first compound 1 µM, partner dose 2 µM) | 64.4% | 26.8% | 62.5% | 36.3% | 228% | 92.6% | 97.5% | 73.8% | 71.7% | 185% | 41.7% | 133% | 50.2% | 141% | 55.9% | 114%
6 | CN(c1ncccc1CNc1nc(Nc2ccc3c(c2)CC(=O)N3)ncc1C(F)(F)F)S(C)(=O)=O + Oc1cc(-c2nc(-c3ccccc3)[nH]c2-c2ccncc2)ccc1Cl [L779450] (first compound 0.08 µM, partner dose 0.2 µM) | 156% | 45.7% | 58.6% | 173% | 177% | 94.1% | 82.2% | 77.9% | 118% | 90% | 61.1% | 79.9% | 57.7% | 84.2% | 86.7% | 104%
7 | CN(c1ncccc1CNc1nc(Nc2ccc3c(c2)CC(=O)N3)ncc1C(F)(F)F)S(C)(=O)=O + Cc1cc([N+](=O)[O-])ccc1NS(=O)(=O)c1cc(Cl)ccc1Cl [FH535] (first compound 0.08 µM, partner dose 1 µM) | 202% | 54.8% | 70.3% | 108% | 538% | 311% | 520% | 357% | 223% | 64.7% | 122% | 78% | 145% | 96.2% | 85.2% | 64.2%
8 | CN(c1ncccc1CNc1nc(Nc2ccc3c(c2)CC(=O)N3)ncc1C(F)(F)F)S(C)(=O)=O + O=C(Nc1ccccc1)c1cc([N+](=O)[O-])ccc1Cl [GW9662] (first compound 0.08 µM, partner dose 2 µM) | 61.7% | 42.4% | 100% | 160% | 24.6% | 83.7% | 73.1% | 199% | 38% | 78.2% | 110% | 68.4% | 45.9% | 115% | 71.8% | 44.6%
9 | NC1(c2ccc(-c3nc4ccn5c(=O)[nH]nc5c4cc3-c3ccccc3)cc2)CCC1 + N#Cc1c(O)c2c(-c3ccc(-c4ccccc4O)cc3)csc2[nH]c1=O [A769662] (first compound 0.4 µM, partner dose 2 µM) | 138% | 15.6% | 63.9% | 128% | 77.9% | 71.7% | 21.1% | 63.2% | 208% | 244% | 76.3% | 59.2% | 112% | 131% | 66.6% | 108%
10 | COc1ccc(C2=N[C@@H](c3ccc(Cl)cc3)[C@@H](c3ccc(Cl)cc3)N2C(=O)N2CCNC(=O)C2)c(OC(C)C)c1 [Nutlin-3] + CC(C)CCN1c2nc(Nc3cc(F)c(O)c(F)c3)ncc2N(C)C(=O)C1C [BID1870] (first compound 0.1 µM, partner dose 0.2 µM) | 80% | 25.9% | 68.7% | 70% | 290% | 103% | 106% | 111% | 141% | 124% | 128% | 71.4% | 49.3% | 59.4% | 80.1% | 242%
11 | CS(=O)(=O)c1ccc(C(=O)Nc2ccc(Cl)c(-c3ccccn3)c2)c(Cl)c1 [vismodegib] + O=C1NC(=O)/C(=C/c2ccc(-c3ccc(F)cc3O)o2)S1 [AS252424] (first compound 1 µM, partner dose 1 µM) | 116% | 13.1% | 40.6% | 169% | 106% | 91.2% | 39.2% | 99% | 78.7% | 60.6% | 115% | 65.3% | 47.7% | 88.9% | 138% | 224%
12 | Cn1cnc2c(F)c(Nc3ccc(Br)cc3Cl)c(C(=O)NOCCO)cc21 [selumetinib] + CCc1ccc(CCOc2ccc(CC3SC(=O)NC3=O)cc2)nc1 [pioglitazone] (first compound 0.015 µM, partner dose 2 µM) | 126% | 57.2% | 118% | 141% | 165% | 77.9% | 95.9% | 109% | 135% | 89.8% | 134% | 137% | 213% | 111% | 357% | 136%
13 | Cn1cnc2c(F)c(Nc3ccc(Br)cc3Cl)c(C(=O)NOCCO)cc21 [selumetinib] + COc1ccc2c(c1)CCC1C2CCC2(C)C(NCCCCCCN3C(=O)C=CC3=O)CCC12 [U73122] (first compound 0.015 µM, partner dose 0.4 µM) | 124% | 66.1% | 55.1% | 78.4% | 151% | 110% | 55.6% | 160% | 143% | 87.9% | 186% | 47.8% | 165% | 330% | 364% | 133%
14 | CCCCCCCCc1ccc(CCC(N)(CO)CO)cc1 [fingolimod] + Cc1cc([N+](=O)[O-])ccc1NS(=O)(=O)c1cc(Cl)ccc1Cl [FH535] (first compound 2 µM, partner dose 1 µM) | 140% | 45.2% | 213% | 100% | 203% | 135% | 1770% | 382% | 75% | 63.8% | 25.7% | 93.8% | 49.1% | 172% | 69% | 98.1%
15 | NC1(c2ccc(-c3nc4ccn5c(=O)[nH]nc5c4cc3-c3ccccc3)cc2)CCC1 + Cn1cc(/C=C2\C(=O)Nc3cccnc32)c2ccccc21 [GW441756] (first compound 0.4 µM, partner dose 0.4 µM) | 77.9% | 22% | 164% | 65.8% | 112% | 91.3% | 90.5% | 70% | 96.6% | 13.6% | 59.2% | 175% | 98.7% | 76.2% | 71.9% | 184%
16 | Cn1cnc2c(F)c(Nc3ccc(Br)cc3Cl)c(C(=O)NOCCO)cc21 [selumetinib] + c1cc(-c2cnn3cc(-c4ccc(OCCN5CCCCC5)cc4)cnc23)ccn1 [Dorsomorphin] (first compound 0.015 µM, partner dose 0.4 µM) | 113% | 18.2% | 106% | 42.6% | 168% | 97% | 67.1% | 121% | 20.9% | 67.9% | 67.6% | 234% | 105% | 121% | 211% | 173%
17 | CCN(CC)CCNC(=O)c1c(C)[nH]c(/C=C2\C(=O)Nc3ccc(F)cc32)c1C [sunitinib] + Cn1cc(/C=C2\C(=O)Nc3cccnc32)c2ccccc21 [GW441756] (first compound 0.4 µM, partner dose 0.4 µM) | 93.2% | 113% | 76.4% | 84.5% | 24.4% | 98.5% | 71.4% | 83.5% | 104% | 197% | 56.7% | 92.8% | 95.3% | 78.9% | 44.7% | 80%
18 | NC1(c2ccc(-c3nc4ccn5c(=O)[nH]nc5c4cc3-c3ccccc3)cc2)CCC1 + CCN(CC)CCCCNc1ncc2cc(-c3cc(OC)cc(OC)c3)c(NC(=O)NC(C)(C)C)nc2n1 [PD173074] (first compound 0.4 µM, partner dose 0.1 µM) | 290% | 16.6% | 238% | 99.3% | 39.2% | 71.3% | 72.3% | 66.6% | 140% | 118% | 129% | 115% | 100% | 97.4% | 52.5% | 211%

Entries 6 to 7 from above:
Row | SMILES | cleaved PARP positive nuclei fraction [1] | cleaved PARP positive nuclei fraction [2] | cleaved PARP positive nuclei fraction [3] | cleaved PARP positive nuclei fraction [4] | cleaved PARP positive nuclei fraction [5] | cleaved PARP positive nuclei fraction [6] | cleaved PARP positive nuclei fraction [7] | cleaved PARP positive nuclei fraction [8] | cleaved PARP positive nuclei fraction [9] | cleaved PARP positive nuclei fraction [10] | cleaved PARP positive nuclei fraction [11] | cleaved PARP positive nuclei fraction [12] | cleaved PARP positive nuclei fraction [13] | cleaved PARP positive nuclei fraction [14] | cleaved PARP positive nuclei fraction [15] | cleaved PARP positive nuclei fraction [16]
6 | CN(c1ncccc1CNc1nc(Nc2ccc3c(c2)CC(=O)N3)ncc1C(F)(F)F)S(C)(=O)=O + Oc1cc(-c2nc(-c3ccccc3)[nH]c2-c2ccncc2)ccc1Cl [L779450] (first compound 0.08 µM, partner dose 0.2 µM) | 156% | 45.7% | 58.6% | 173% | 177% | 94.1% | 82.2% | 77.9% | 118% | 90% | 61.1% | 79.9% | 57.7% | 84.2% | 86.7% | 104%
7 | CN(c1ncccc1CNc1nc(Nc2ccc3c(c2)CC(=O)N3)ncc1C(F)(F)F)S(C)(=O)=O + Cc1cc([N+](=O)[O-])ccc1NS(=O)(=O)c1cc(Cl)ccc1Cl [FH535] (first compound 0.08 µM, partner dose 1 µM) | 202% | 54.8% | 70.3% | 108% | 538% | 311% | 520% | 357% | 223% | 64.7% | 122% | 78% | 145% | 96.2% | 85.2% | 64.2%
